Laboratory results from PubChem BioAssay AID2685 (National Center for Advancing Translational Sciences (NCATS), 2010).
The list shows a part of the results. These are further read-outs of the screen, such as a control signal, another cell line or another target. No call is given for them. The list favours compounds with an active or inconclusive main result. Potencies come from curve fits of mixed quality, noted in brackets.

Assay: qHTS Assay for Lipid Storage Modulators in Drosophila S3 Cells;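 for cell number change: cells counted by Cell Tracker Red CMTPX staining in the red channel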
Conditions: BODIPY lipid droplet fluorescence, 18-24 h; for cell number change: measured here: cell count max response, cells fed with added oleic acid
Outline: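 Drosophila S3 cells loaded with oleic acid (400 uM, as added) and compounds at several concentrations; lipid droplets imaged by 488-nm laser-scanning cytometry, 500–530 nm intensity and object ratio to cell channel. Percent activity normalized to 20 uM Triacsin C.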

[1] = measured here: lipid fluorescence (Fed channel) AC50, cells fed with added oleic acid
[2] = measured here: cell number channel AC50, cells fed with added oleic acid

Row | Compound | cell number change [%] | AC50 [1] | AC50 [2]
1 | CCCc1cc(=O)oc2cc(C)cc(OC(C)C(=O)NCCCn3ccnc3)c12 (configuration not stated) | 16.9 | 16.4 µM [rising, partial curve] | 
2 | O=C(Nc1nncs1)C1c2ccccc2Oc2ccccc21 | -12.9 | 20.6 µM [falling, partial curve] | 
3 | COCCNC(=O)C(c1ccncc1)N(Cc1ccccc1)C(=O)Cn1nnc2ccccc21 (configuration not stated) | 42.9 |  | 
4 | CC(=O)c1cccc(NS(=O)(=O)c2ccc(N/C=C\C(=O)c3ccc(F)cc3)cc2)c1 | -36.6 |  | 29.1 µM [falling, single point]
5 | COCCCNC(=O)Cc1ccc(S(=O)(=O)N2CCOCC2)s1 | -17.3 | 0.411 µM [falling, full curve] | 
6 | O=C(O)CCC(=O)NCC1OCCc2ccccc21 (configuration not stated) | 43.1 |  | 29.1 µM [rising, single point]
7 | OCC[C@@H]1C[C@H](O)[C@@H](O)[C@@]2(Cc3ccccc3CCO2)O1 | 23.1 |  | 
8 | Cc1ccc2c(c1)N(CCCC(=O)Nc1cccc(C(F)(F)F)c1)C(=O)CO2 | 13.7 |  | 6.51 µM [rising, single point]
9 | Cc1ccnc(NC(=S)NC(=O)/C=C/c2ccccc2)c1 | -16.5 |  | 
10 | COC(=O)c1ccc(N2CCN(C)CC2)c(NC(=O)COc2cccc(C)c2)c1 | 8.7 | 29.1 µM [falling, single point] | 
11 | CCN(Cc1cccs1)C(=O)CN1CCN(S(=O)(=O)c2ccc3c(c2)OCCCO3)CC1 | 157 | 29.1 µM [rising, single point] | 18.4 µM [rising, partial curve]
12 | C[C@@H]1CN=C2N(CCNC(=O)CCC3CCCCC3)[C@H](Cc3ccc(O)cc3)CN21 | 19.9 | 0.58 µM [rising, full curve, poor fit] | 
13 | COc1cc(C(=S)N2CCCCC2)ccc1OCC(=O)N1CCCC1 | 125 |  | 20.6 µM [rising, single point]
14 | Cc1ccc(-c2csc(N3CCC[C@@H]3C(=O)NCCn3c(-c4ccncc4)nc4ccccc43)n2)cc1 | -28.7 | 1.3 µM [falling, full curve] | 
15 | Cc1ccc(S(=O)(=O)NCCNc2ccc([N+](=O)[O-])cc2)cc1 |  | 6.51 µM [falling, single point] | 
16 | CCOc1ccc(S(=O)(=O)N2CCC(C(=O)NCC(=O)Nc3cccc(Cl)c3C)CC2)cc1 | 40.6 |  | 16.4 µM [rising, single point]
17 | O=C(CCCC(=O)N(CC(=O)NC1CCCC1)c1cccc(F)c1)Nc1ccccn1 | 25.7 | 0.58 µM [rising, single point] | 
18 | NC(=O)c1ccc(NC(=O)COC(=O)C2(c3ccccc3F)CCCC2)cc1 |  | 0.58 µM [falling, single point] | 
19 | CCN(Cc1nc2cc(Cl)ccc2c(=O)[nH]1)C(=O)COc1ccccc1Cc1ccccc1 | -37.4 |  | 20.6 µM [falling, single point]
20 | COc1ccc(CNC(=O)c2cc(=O)c3c(C)cc(C)cc3o2)cc1 | 7.01 | 3.66 µM [rising, partial curve, poor fit] | 

Row | Compound | cell number change [%] | AC50 [1] | AC50 [2]
21 | COc1ccccc1NS(=O)(=O)c1ccc(NN=C2CCCC2)c([N+](=O)[O-])c1 | -42.2 | 18.4 µM [falling, single point] | 20.6 µM [falling, single point]
22 | CCCCN1C(=O)c2ccc(C(=O)OCC(=O)N3CCN(c4ccccc4)CC3)cc2C1=O | 8.64 |  | 
23 | ONC(=Nc1ccc(Cl)cc1)c1ccccc1Cl | -76.7 |  | 16.4 µM [falling, partial curve, poor fit]
24 | O=C(NCc1ccc(Cl)cc1Cl)c1ccccn1 |  | 0.58 µM [rising, single point] | 
25 | CCN1CCN(c2ncc(C(=O)Nc3cc(Cl)c(OC)cc3OC)c3ccccc23)CC1 | 14.6 | 0.206 µM [rising, partial curve] | 0.0291 µM [rising, full curve, poor fit]
26 | N/C(CC(=O)NC1CCCCC1)=N\OCC(=O)Nc1ccc(Cl)c(Cl)c1 | 0.44 |  | 
27 | O=[N+]([O-])c1ccc(Oc2c(F)c(F)nc(N3CCCC3)c2F)cc1 | -0.0379 | 16.4 µM [rising, partial curve] | 
28 | COc1ccccc1N1CCN(/N=C\C(Br)=C\c2ccccc2)CC1 | -7.32 |  | 
29 | Cc1ccccc1NC(=S)N1CCC(NC(=O)c2ccco2)CC1 | -77.4 | 9.2 µM [falling, partial curve] | 13 µM [falling, partial curve]
30 | C=C1c2cc(C)ccc2NC(=O)N1c1ccc(C)cc1 | 63.4 |  | 5.8 µM [rising, partial curve]
31 | CN(C)CC/C=C1/c2cc(F)ccc2CSc2ccc(F)cc21 | -16.5 |  | 
32 | CC(C)(C)OC(=O)NCCCC(CCCNC(=O)OC(C)(C)C)C(=O)O |  | 18.4 µM [falling, partial curve] | 
33 | CCN(CC(=O)NC(=O)NC1CCCCC1)Cc1nc2ccccc2c(=O)[nH]1 | 34.4 | 0.92 µM [rising, full curve] | 0.231 µM [rising, full curve]
34 | CC(=O)c1ccc(NC(=O)COC(=O)c2ccccc2N=Nc2ccc(N(C)C)cc2)cc1 |  | 6.51 µM [falling, single point] | 
35 | Cc1nc2ccccc2c(=O)n1/N=C/c1cccnc1 | 58.1 | 2.31 µM [rising, partial curve] | 4.11 µM [rising, partial curve]
36 | Cc1nn(C)cc1/C=N/NC(=O)c1ccc2c(c1)OCO2 | -22.6 | 20.6 µM [falling, single point] | 
37 | C[C@@H](C(=O)NCC1CCCO1)N1C(=O)N2CCc3c([nH]c4ccccc34)[C@@]2(C)C1=O (some centres not stated) | -9.7 |  | 
38 | O=C(Nc1ccccc1)N1CCCN(c2ccc(C(F)(F)F)cc2[N+](=O)[O-])CC1 | 8.86 | 3.26 µM [rising, single point] | 
39 | CC(C)NC(=O)COC(=O)c1ccccc1CSC1=NCCS1 | 6.3 |  | 
40 | CSc1ccc(C(=O)C2CCCN(C(=O)c3ccsc3)C2)cc1 (configuration not stated) | -20.5 | 13 µM [falling, partial curve] | 

Sorted by count of non-hydrogen atoms (smallest number first): part of the list above.
Row | Compound | cell number change [%] | AC50 [1] | AC50 [2]
31 | CN(C)CC/C=C1/c2cc(F)ccc2CSc2ccc(F)cc21 | -16.5 |  | 
32 | CC(C)(C)OC(=O)NCCCC(CCCNC(=O)OC(C)(C)C)C(=O)O |  | 18.4 µM [falling, partial curve] | 
38 | O=C(Nc1ccccc1)N1CCCN(c2ccc(C(F)(F)F)cc2[N+](=O)[O-])CC1 | 8.86 | 3.26 µM [rising, single point] | 
